Laboratory results published in patent publication US20240092909A1 (IBIO, published 2024).
No constants are given. Whether binding was seen depends on the method and setting. Some entries that bind do so weakly or less than the wild type.

By UniProt entry, the sequences of proteins in these tests, tags left out. Where a name states a change or a piece, a line headed by the entry shows the natural chain unless it says otherwise.
UniProt Q15116: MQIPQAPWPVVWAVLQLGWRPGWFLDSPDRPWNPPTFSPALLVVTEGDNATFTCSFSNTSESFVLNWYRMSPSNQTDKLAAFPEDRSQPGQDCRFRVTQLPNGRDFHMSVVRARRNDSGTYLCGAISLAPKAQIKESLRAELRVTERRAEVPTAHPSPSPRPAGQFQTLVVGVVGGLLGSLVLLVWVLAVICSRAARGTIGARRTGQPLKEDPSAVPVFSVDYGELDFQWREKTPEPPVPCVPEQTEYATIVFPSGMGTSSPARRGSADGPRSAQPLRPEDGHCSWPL

Experiments:
[1] = biological target: Programmed cell death protein 1 (PD-1), human (human) (UniProt Q15116); experiment: ELISA
[2] = biological target: Programmed cell death protein 1 (PD-1), human (human) (UniProt Q15116); experiment: SPR (FIG. 2B)
[3] = biological target: Programmed cell death protein 1 (PD-1), human (human) (UniProt Q15116); experiment: SPR competition with PD1AB6
[4] = biological target: Programmed cell death protein 1 (PD-1), human (human) (UniProt Q15116); experiment: SPR, five concentrations
[5] = biological target: Programmed cell death protein 1 (PD-1), human (human) (UniProt Q15116); experiment: SPR epitope binning
[6] = biological target: Programmed cell death protein 1 (PD-1), human (human) (UniProt Q15116); experiment: SPR, three concentrations
[7] = biological target: Programmed cell death protein 1 (PD-1), human (human) (UniProt Q15116); experiment: SPR

Row | Binder | binding [3] | binding [4] | binding [7] | further results
1 | 27A5 (antibody, V domains shown, Antibody from a monoclonal hybridoma of immunised BALB/c mice) VH: QVTLKESGPGILQPSQTLSLTCSFSGFSLSTFGMGVGWIRQPSGKGLEWLAHIWWDADKYSTPALKSRLTISKDTSKNQVFLKIANVDTADTATYYCARIGRNYYFDYWGQGTTLTVSS VL: DIVMTQSPSSLAVSVGEKVTLTCKSSQTLLDSTNQKNYLAWYQQIPGQSPKLLIYWASTRESGVPDRFTGSGSGTDFTLTISSVKAEDLTVYYCQQYYTYPLTFGAGTKLELK |  |  |  | binding [1]: binds; binding [2]: binds
2 | E2-B5-7_201 (antibody, V domains shown) VH: EVQLVQSGAEVKKPGATVKISCKASGYSLSDHYMHWVQQAPGKGLEWMGRIDPHSGATKYDPKFQGRVTITADTSTDTAYMELSSLRSEDTAVYYCARSGPVYHYGSSYVMDYWGQGTTVTVSS VL: DIVMTQSPDSLAVSLGERATINCKSGQSVFYSSNNKNYLAWYQQKPGQPPKLLIYWASTRESGVPDRFSGSGSGTDFTLTISSLQAEDVAVYYCQQYLYSWTFGQGTKLEIK | binds | binds |  | 
3 | E2-B5-7_211 (antibody, V domains shown) VH: EVQLVQSGAEVKKPGATVKISCKASGYSLSDHYMHWVQQAPGKGLEWMGRIDPHSGATKYDPKFQGRVTITADTSTDTAYMELSSLRSEDTAVYYCARSGPVYHYGSSYVMDYWGQGTTVTVSS VL: DIVMTQSPDSLAVSLGERATINCKSGQSVFYSSNNKNYLAWYQQKPGQPPKLLIYWADTRESGVPDRFSGSGSGTDFTLTISSLQAEDVAVYYCQQYLYSWTFGQGTKLEIK | binds | binds |  | 
4 | D4-A7-7_201 (antibody, V domains shown, also called clone D4-A7-7_201) VH: EVQLVQSGAEVKKPGATVKISCKASGYILTDHYMHWVQQAPGKGLEWMGRIDPHSGGIKYDPKFQGRVTITADTSTDTAYMELSSLRSEDTAVYYCARSGPVYHYGSSYVMDYWGQGTTVTVSS VL: DIVMTQSPDSLAVSLGERATINCKSGQSVFYSSNNKNYLAWYQQKPGQPPKLLIYWASTRESGVPDRFSGSGSGTDFTLTISSLQAEDVAVYYCQQYLYSWTFGQGTKLEIK | binds | binds |  | binding [5]: binds
5 | E2-B5-6_201 (antibody, V domains shown) VH: EVQLVQSGAEVKKPGATVKISCKASGYSLSDHYMHWVQQAPGKGLEWMGRIDPHSGATKYDPKFQGRVTITADTSTDTAYMELSSLRSEDTAVYYCARSGPVHYYGSSYVMDYWGQGTTVTVSS VL: DIVMTQSPDSLAVSLGERATINCKSGQSVFYSSNNKNYLAWYQQKPGQPPKLLIYWASTRESGVPDRFSGSGSGTDFTLTISSLQAEDVAVYYCQQYLYSWTFGQGTKLEIK | binds | binds |  | 
6 | 7 (antibody, V domains shown, From phage panning of a naive antibody library; also called antibody 7; clone 7) VH: EVQLLESGGGLVQPGGSLRLSCAASGFPFGNYLMNWVRQAPGKGLEWVSVISGGGVSTYYADSVKGRFTISRDNSKNTLYLQMNSLRAEDTAVYYCARGPSSWPAFDVWGQGTLVTVSS VL: DIQMTQSPSSLSASVGDRVTITCRASETISNFLNWYQQKPGKAPKLLIYTTSSLQRGVPSRFSGSGSGTDFTLTISSLQPEDFATYYCQQSYSVPWTFGGGTKVEIK |  |  |  | binding [5]: binds; binding [6]: binds
7 | 43 (antibody, V domains shown, From phage panning of a naive antibody library; also called antibody 43; clone 43) VH: EVQLLESGGGLVQPGGSLRLSCAASGFTFSIHPMTWVRQAPGKGLEWVSLISTGGGSTYYADSVKGRFTISRDNSKNTLYLQMNSLRAEDTAVYYCASASVLGSGGYWSPGMDYWGQGTLVTVSS VL: DIQMTQSPSSLSASVGDRVTITCRASQSIDRFLNWYQQKPGKAPKLLIYGASNLPSGVPSRFSGSGSGTDFTLTISSLQPEDFATYYCQQSFSIPWTFGGGTKVEIK |  |  |  | binding [6]: binds
8 | 1-C09-3 (antibody, V domains shown, From the in vitro scFv library of immunised mice) VH: QVQLQQPGAELVRPGTSVKLSCKASGYTFTSYWMHWVKERPGQGLEWIGVIDPSDSYTNYNQKFKDKATLTVDTSSSTAYMQLSSLTSEDSAVYYCARSPFDYWGQGTTLTVSS VL: DIQMTQSQKFMSTSVGDRVSVTCKASQNVGTNVAWYQQKPGQSPKALIYSASYRYSGVPDRFIGSGSGTDFTLTIRNVQSEDLAEYFCQQHNSYPFTFGGGTKLEIK |  |  | binds | 
9 | 1-F12-1 (antibody, V domains shown, From the in vitro scFv library of immunised mice) VH: EVQLQQPGAELVRPGTSVKLSCKASGYTFTSYWMHWVKQRPGQGLEWIGVIDPSDSYTQYNQKFKGKATLTVDTSSSTAYMQLSSLTSEDSAVYYCARSPFDYWGQGTTVTVSS VL: DIVMTQSHKFMSTSVGDRVSITCKASQDVSTAVAWYQQKPGQSPKALIYSASYRYSGVPDRFTGSGSGTDFTLTISNVQAEDLAVYYCHQHNTYPFTFGGGTKLEIK |  |  | binds | 
10 | 1-F09-1 (antibody, V domains shown, From the in vitro scFv library of immunised mice) VH: QVQLQQPGAEVVMPGASVKLSCKASGYTFTSYWMHWVKQRPGQGLEWIGVIDPSDSYTQYNQKFKGKATLTVDTSSSTAYMQLSSLTSEDSAVYYCARSPFDYWGQGTTLTVSS VL: DIQMNQSHKFMSTSVGDRVSITCKASQDVSTAVAWYQQKPGQSPKALIYSASNRYSGVPDRFIGSGSGTDFTLTIRNVQSEDLAEYFCQQHNSYPFTFGGGTKLEMK |  |  | binds | 
11 | 2-D11-1 (antibody, V domains shown, From the in vitro scFv library of immunised mice) VH: EVQLQQPGAELVRPGTSVKLACKASGYTFNTYWMHWVNQRPGQGLEWIGVIDPSDSYTQYNQKFKGKATLTVDTSSSTAYMQLSSLTSEDSAVYYCARSPFDYWGQGTTLTVSS VL: DVQMTQSQKFMSTSVGDRVSVTCKASQNVGTNVAWYQQKPGQSPKALIYSASYRYSGVPDRFIGSGSGTDFTLTISNVQSEDLAEYFCQQHNSYPFTFGGGTKLEIK |  |  | binds | 
12 | 1-C09-1 (antibody, V domains shown, From the in vitro scFv library of immunised mice) VH: QVQLQQPGTELVRPGTSVKMSCKASGYTFTSYWMHWVKQRPGQGLEWIGVIDPSDSYTQYNQKFKGKATLTVDTSSSTAYMQLSSLTSEDSAVYYCARSPFDYWGQGTTLTVSS VL: DIVMTQSQKFMSTSVGDRVSVTCKASQNVGTNVAWYQQKPGQSPKALIYSASYRYSGIPDRFTGSGSGTDFTLTISNVQSEDLADFFCQQYNSYPFTFGGGTKLEIK |  |  | binds | 
13 | 1-H01-1 (antibody, V domains shown, From the in vitro scFv library of immunised mice; also called clone 1-H01-1) VH: QVQLQQPGAELVKPGASVKMSCKASGYTFTSYWMHWVKQRPGQGLEWIGVIDPSNSYTIYNQKFKGKATLTVDTSSSTAYMQLSSLTSEDSAVYYCARSPFDYWGQGTTLTVSS VL: DVVMTQSQKFMSTSVGDRVSVTCKASQNVGTNVAWYQQKPGQSPKALIYSASYRYSGVPDRFTGSGSGTDFTLTIRNVQSEDLAEYFCQQHNSYPFTFGGGTKLEIK |  |  | binds | binding [5]: binds
